# From PubChem BioAssay AID540256 (National Center for Advancing Translational Sciences (NCATS), 2011)
# About 3,700 (1.2%) of roughly 300,000 compounds were called active. This list was built around the results that the source calls inconclusive (neither active nor inactive); the mix of calls is not that of the screen. The call rests on the fitted dose curve; tested in HEK293 cells. Potencies beside an inconclusive call are fits to weak or partial responses and may not hold up.
# Test: qHTS for Inhibitors of binding or entry into cells for Lassa Virus; further: nearly all actives have a fitted effect of over 50% in size
# Settings: Lassa virus pseudotype entry inhibition, cell reporter; series mostly up to 37.9 µM
# Potency means the concentration at half of the fitted maximal effect.
row,Structure (SMILES),Potency
1,O=C(NCCCN1CCCCC1)c1[nH]c2ccccc2c1Sc1ccc(Cl)cc1,"inconclusive: 0.562 µM [activator, full curve, poor fit]"
2,O=C(CCS(=O)(=O)c1nc(-c2cccs2)cc(C(F)(F)F)n1)Nc1ccc(F)c(Cl)c1,"inconclusive: 35.5 µM [inhibitor, single point]"
3,CC(/C=C1\SC(=O)N(CCCC(=O)O)C1=O)=C\c1ccccc1,active: 0.794 µM
4,CC(=O)c1nn(-c2cccc(Br)c2)cc1C(=O)c1ccc(Cl)cc1,"inconclusive: 10 µM [inhibitor, partial curve, poor fit]"
5,CCCCOP(=O)(OCCCC)C1(NS(=O)(=O)c2ccccc2)C=CC(=O)c2ccccc21 (centres undefined),"inconclusive: 35.5 µM [inhibitor, single point]"
6,O=C(Nc1cccc2ncccc12)c1cccc(F)c1,inactive
7,O=C(NC(Cc1ccccc1)C(=O)O)/C(=C\c1ccc(F)cc1)NC(=O)c1ccccc1 (centres undefined),"inconclusive: 35.5 µM [activator, single point]"
8,COc1ccccc1N1CCN(C(=O)c2ccc3nc(-c4ccco4)c(-c4ccco4)nc3c2)CC1,"inconclusive: 25.9 µM [inhibitor, single point]"
9,COc1ccc(C(=O)OC(C)C(=O)Nc2cc(C(F)(F)F)ccc2Cl)c(OC)c1OC (centres undefined),"inconclusive: 12.6 µM [inhibitor, partial curve, poor fit]"
10,CC(C)OCCCNC(=O)CCCn1c(SCC(N)=O)nc2c(sc3ccccc32)c1=O,inactive
11,CC(=O)/C=C(\C)N=Nc1c(O)[nH]c2ccccc12,inactive
12,CCCCOc1ccc(C2=NNC(=O)CC2)cc1,inactive
13,O=C(CSc1nc2c([nH]c3ccccc32)c(=O)n1-c1ccc(F)cc1)NCc1ccc(F)cc1,"inconclusive: 7.08 µM [inhibitor, partial curve, poor fit]"
14,COc1ccc(C2c3ccc4ccccc4c3Oc3ncn(CCO)c(=N)c32)cc1 (centres undefined),active: 8.91 µM
15,O=C(OCc1csc(-c2ccccc2)n1)c1ccccc1O,inactive
16,COc1ccc2c(-c3ccccc3)cc(SCC(=O)NC3CCS(=O)(=O)C3)nc2c1 (centres undefined),"inconclusive: 12.6 µM [inhibitor, partial curve, poor fit]"
17,O=C(O)c1ccc(C2SCC(=O)N2Cc2ccccc2)cc1 (centres undefined),inactive
18,Cc1ccc(Sc2ncccc2COC(=O)Nc2ccccc2)cc1,active: 15.8 µM
19,COc1cc(NC(=O)COC(=O)CCc2cc(OC)c(OC)c(OC)c2)cc(OC)c1,"inconclusive: 1.26 µM [inhibitor, single point]"

# Two records drawn at random from those above:
row,Structure (SMILES),Potency
4,CC(=O)c1nn(-c2cccc(Br)c2)cc1C(=O)c1ccc(Cl)cc1,"inconclusive: 10 µM [inhibitor, partial curve, poor fit]"
2,O=C(CCS(=O)(=O)c1nc(-c2cccs2)cc(C(F)(F)F)n1)Nc1ccc(F)c(Cl)c1,"inconclusive: 35.5 µM [inhibitor, single point]"
